Values from PubChem BioAssay AID686943 (Drosophila RNAi Screening Center, 2013)

Screen: 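Fly genes whose loss alters ERK activation after insulin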 (primary screen)
Cell system: Drosophila S2R+ haemocyte-like cells expressing YFP-tagged ERK (Rolled)
Knock-down reagent: long dsRNA against Drosophila genes
Conditions: insulin stimulation versus unstimulated cells; dose and duration not given
Measured: 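Antibody staining for doubly phosphorylated ERK divided by ERK-YFP signal, as plate z-scores, in insulin-treated and untreated cells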
Reading the numbers: replicate 1, z-score of dpERK with insulin and replicate 2, z-score of dpERK with insulin: higher = more active ERK per ERK-YFP after insulin
The deposit covers about 23,000 reagents; this is an unselected part of those with a known target gene and a result. 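Extra replicates exist only for a retested subset of genes; insulin dose and duration not given; both raised and lowered dpERK matter.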 Not all columns of the deposit are shown. Not stated in the record: the amount of reagent, the time to read-out.

predicted target,dsRNA,"replicate 1, z-score of dpERK with insulin","replicate 2, z-score of dpERK with insulin"
CG11600,DRSC14332,-0.17,-0.4
Uggt,DRSC11315,-0.01,-0.4
Tig,DRSC03456,1.4,0.4
Cyp308a1,DRSC20238,-0.42,0.13
Obp44a,DRSC06838,0.14,-0.04
IKKbeta,DRSC16714,0.15,0.34
CG14321,DRSC14800,-0.83,0.35
CR33317,DRSC02653,-0.13,0.05
CG2269,DRSC06833,0.68,0.99
Or33a,DRSC03386,0.33,0.15
CG43057,DRSC01015,0.26,0.01
RYBP,DRSC04117,0.19,-0.03
CG2150,DRSC15420,-1.98,0.11
Septin4,DRSC20205,0.48,0.37
Ctr1C,DRSC15089,0.44,0
CG5880,DRSC15906,-0.47,-0.92
Bet5,DRSC14600,-0.03,1.08
CG31823,DRSC01887,0.51,-0.07
CG12836,DRSC06182,0.14,1.01
CG3919,DRSC10389,0.14,0.17
Nlg4,DRSC15108,0.81,0.71
Nlg4,DRSC15109,0.27,-0.32
Nlg4,DRSC15700,0.38,0.86
Nlg4,DRSC15701,-2.64,-3.45
Nlg4,DRSC22243,-1.58,-2.5
Osi23,DRSC15074,0.19,0.07
Hr4,DRSC18495,-3.81,1.3
Hr4,DRSC18599,-2.5,0
Hr4,DRSC22269,-1.69,-1.57
Hr4,DRSC22677,-2.63,-3.38
CG8321,DRSC07148,0.16,0.83
Rim,DRSC16224,-0.45,0
Rim,DRSC16225,-2.23,-3.15
Rim,DRSC16226,0.14,0.48
Rim,DRSC16227,0.51,0.04
Rim,DRSC22406,0.87,0.26
CG14329,DRSC14808,2.13,1.49
CG33012,DRSC06287,0.66,0.6
CG33012,DRSC06288,0.93,1.47
sut1,DRSC07700,-0.19,1.02
sinu,DRSC09752,0.52,-0.5
pk,DRSC06178,-0.88,-1.86
pk,DRSC07664,-0.52,-0.19
pk,DRSC22156,-0.37,0.1
fwe,DRSC09398,0.46,0.71
fwe,DRSC10594,0.5,0.26
fwe,DRSC21400,-1.21,0.11
Snx17,DRSC02884,0.45,1.67
l(2)k05819,DRSC00826,0.51,0.18
Rsph1,DRSC02864,0.21,-0.04
gfzf,DRSC12506,-3.19,-1.48
gfzf,DRSC21874,-0.54,-0.94
CG11668,DRSC14341,0.53,0.93
CG31294,DRSC22217,-1.04,-0.52
CG6283,DRSC16009,-1.48,-0.08
E(Pc),DRSC05281,-3.7,-4.49
E(Pc),DRSC07408,-3.48,-4.48

Reformatted: entries from further up.
CG43057 [DRSC01015]
- replicate 1, z-score of dpERK with insulin: 0.26
- replicate 2, z-score of dpERK with insulin: 0.01

RYBP [DRSC04117]
- replicate 1, z-score of dpERK with insulin: 0.19
- replicate 2, z-score of dpERK with insulin: -0.03

CG2150 [DRSC15420]
- replicate 1, z-score of dpERK with insulin: -1.98
- replicate 2, z-score of dpERK with insulin: 0.11

Septin4 [DRSC20205]
- replicate 1, z-score of dpERK with insulin: 0.48
- replicate 2, z-score of dpERK with insulin: 0.37

Ctr1C [DRSC15089]
- replicate 1, z-score of dpERK with insulin: 0.44
- replicate 2, z-score of dpERK with insulin: 0

CG5880 [DRSC15906]
- replicate 1, z-score of dpERK with insulin: -0.47
- replicate 2, z-score of dpERK with insulin: -0.92

Bet5 [DRSC14600]
- replicate 1, z-score of dpERK with insulin: -0.03
- replicate 2, z-score of dpERK with insulin: 1.08

CG31823 [DRSC01887]
- replicate 1, z-score of dpERK with insulin: 0.51
- replicate 2, z-score of dpERK with insulin: -0.07

CG12836 [DRSC06182]
- replicate 1, z-score of dpERK with insulin: 0.14
- replicate 2, z-score of dpERK with insulin: 1.01

CG3919 [DRSC10389]
- replicate 1, z-score of dpERK with insulin: 0.14
- replicate 2, z-score of dpERK with insulin: 0.17
